Results: US20240342133A1, “TOPICAL STATIN FORMULATION FOR TREATMENT OF LICHEN SCLEROSUS AND PSORIASIS” (TBT PHARMA, INC, priority 2023, published 2024)
For at least one compound, name, drawing or mass did not settle the structure.

Tests used:
[1] = test system: wound; assay: Systemic simvastatin wound healing in db/db mice; assay type: in vivo
[2] = test system: wound; assay: Topical simvastatin wound healing in mice; assay type: in vivo
[3] = test system: chronic wounds; assay: Full thickness diabetic porcine wound model; assay type: in vivo; settings: day 10
Description: FIG. 6. Histology sections of optimal dose at day 10 show increased epithelialization and vascularization. FIG. 7. Percent vascularity at day 10 determined by PD31 stain. […] Mevastatin, simvastatin, and a combination were tested in a full thickness diabetic porcine model. FIG. 6 confirms that statins are an effective treatment of chronic wounds with a known mechanism of action. The compounds show increased epithelialization and vascularization.

[4] = test system: MRSA; assay: MRSA load in ex-vivo wound cultures; parameters: species or system methicillin resistant staph aureus; settings: after 24 hours
[5] = test system: methicillin resistant staph aureus (MRSA); assay: MRSA biofilm disruption / inhibition; settings: at 2-4×MIC

**Q.** Which angiogenesis [1] does the source give for `CCC(C)(C)C(=O)O[C@H]1C[C@@H](C)C=C2C=C[C@H](C)[C@H](CC[C@@H]3C[C@@H](O)CC(=O)O3)[C@H]21` [simvastatin] here?
**A.** promote

**Q.** And the breaking strength [1]?
**A.** increase

**Q.** What about the “nitric oxide wound content” value [1] of the same compound?
**A.** enhances

**Q.** And the angiogenesis [2]?
**A.** increase

**Q.** And the wound healing [2]?
**A.** significant acceleration

**Q.** What about the epithelialization [3] of the same compound?
**A.** increased

**Q.** What about the vascularization [3] of the same compound?
**A.** increased

**Q.** What about the MRSA load [4] of the same compound?
**A.** drastic reduction

**Q.** What about the “inhibition of MRSA” value [5] of the same compound?
**A.** complete inhibition

**Q.** And the “mode of antibacterial action on MRSA” value [5]?
**A.** transitioned from bacteriostatic to bactericidal
